# Experimental data: PubChem BioAssay AID743454 (Peter MacCallum Cancer Centre, 2014)
# Purpose: 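Knock-downs lowering viability or raising caspase 3/7 activity in vorinostat-treated resistant cells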 (primary screen)
# Cell system: human HCT116-VR colon cancer cells, selected for vorinostat resistance
# Reagents: siRNA pool against human genes, 40 nM siRNA pool
# Time to read-out: vorinostat for 24 h, read-out about 72 h after transfection
# Conditions: vorinostat at 2.5 µM final
# Read-out: 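Cell viability by CellTiter-Fluor and caspase 3/7 activity by luminescence, each scaled to mock wells per plate, duplicates averaged, then robust z-scored over all plates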
# Reading the numbers: viability robust z-score: higher = more viable cells than screen typical; caspase robust z-score: higher = more caspase 3/7 activity than screen typical
# Rule for the call: 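Hits are knock-downs in viability class RV1/RV2 or caspase class CA1/CA2, excluding ones that killed cells in the no-drug cell-count arm; hits then retested with single siRNAs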
# The deposit covers about 18,000 reagents; below is a part drawn at random. In the full data, 450 (2.5%) are marked active. 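Single biological run; no consistent viability z cut-off exists, so the class columns, not z-scores, define the calls.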 Entries without a mark were called inactive. Reagent sequences are not shown.
target gene,viability hit class,caspase hit class,viability robust z-score,caspase robust z-score
SLC39A7 (GeneID 7922),no change,no change,-0.2,-0.56
PPP1R1B (GeneID 84152),no change,no change,0.92,-0.57
TMEM248 (GeneID 55069),no change,no change,0.32,-1.03
CARINH (GeneID 441108),no change,no change,0.06,-1.19
KGD4 (GeneID 92259),no change,no change,-0.5,-0.5
SPATA25 (GeneID 128497),no change,no change,0.62,-0.46
WIPI2 (GeneID 26100),no change,no change,0.16,-0.73
TUBG2 (GeneID 27175),no change,no change,-0.38,1.92
CARD11 (GeneID 84433),no change,no change,-0.22,-1.19
FAAP20 (GeneID 199990),no change,no change,-0.92,0.56
RAI2 (GeneID 10742),no change,no change,-0.6,0.16
AUNIP (GeneID 79000),no change,no change,0.77,-0.14
GET1 (GeneID 7485),no change,no change,1.77,-0.01
PRAMEF7 (GeneID 441871),no change,no change,-1.5,3.06
ACTRT1 (GeneID 139741),no change,no change,-2.52,-0.24
CASKIN2 (GeneID 57513),no change,no change,0.37,1.54
SLC25A35 (GeneID 399512),no change,no change,0.64,2.37
TNP1 (GeneID 7141),no change,no change,-0.43,1.27
OR4F17 (GeneID 81099),no change,no change,-0.24,0.25
ASIC5 (GeneID 51802),no change,no change,-1.38,-0.4
RNASEH1 (GeneID 246243),no change,no change,0.44,0.38
IER3IP1 (GeneID 51124),no change,no change,-0.54,0.66
PPAN (GeneID 56342),no change,no change,-2.66,0.78
SIRAL2 (GeneID 55007),no change,no change,-1.04,-0.89
LINC01973 (GeneID 400624),no change,no change,1.72,0
CDC73 (GeneID 79577),no change,no change,-0.86,2.82
DDX3Y (GeneID 8653),no change,no change,0.51,0.33
GPR180 (GeneID 160897),no change,no change,-0.22,-0.43
ERC1 (GeneID 23085),no change,no change,-0.87,0.32
MAP2K1 (GeneID 5604),no change,no change,-0.29,1.45
SLC16A12 (GeneID 387700),no change,no change,0.45,0.78
RD3 (GeneID 343035),no change,no change,-0.9,-0.74
BLTP2 (GeneID 9703),no change,no change,0.5,0.72
ANKDD1A (GeneID 348094),no change,no change,0.04,0.26
NXT2 (GeneID 55916),no change,no change,0.26,0.06
NEK7 (GeneID 140609),no change (active),CA2 (caspase activation),-2.43,6.13
NEURL4 (GeneID 84461),no change,no change,0.84,0.5
PTK7 (GeneID 5754),no change,no change,-1.27,2.37
PANX2 (GeneID 56666),no change,no change,-0.63,1.39
USP1 (GeneID 7398),no change,no change,-0.17,-0.4
NECAB3 (GeneID 63941),no change,no change,1.54,-0.88
CEACAM8 (GeneID 1088),no change,no change,0.3,-0.72
FNIP1 (GeneID 96459),no change,no change,0.5,0.13
KCNE3 (GeneID 10008),no change,no change,0.45,1.8
CAMK4 (GeneID 814),no change,no change,-0.16,-0.54
PRR14L (GeneID 253143),no change,no change,0.97,-0.94
EEIG2 (GeneID 284611),no change,no change,1.48,-0.05
KIAA1191 (GeneID 57179),RV2 (reduced viability) (active),no change,-2.93,-0.42
F5 (GeneID 2153),no change,no change,1.16,-0.44
TADA2A (GeneID 6871),no change,no change,-0.07,0.9
NUDT12 (GeneID 83594),no change,no change,-0.05,0.54
ZNF609 (GeneID 23060),no change,no change,0,1.96
ADRA2A (GeneID 150),no change,no change,0,0.32
OR6C65 (GeneID 403282),no change,no change,-0.94,1.57
GSS (GeneID 2937),no change,no change,-0.78,1.51
OR5C1 (GeneID 392391),no change,no change,-0.8,0.94
PARL (GeneID 55486),no change,no change,-1.53,-1.07

In a second layout: 9 of the entries above
| target gene | viability hit class | caspase hit class | viability robust z-score | caspase robust z-score |
| --- | --- | --- | --- | --- |
| EEIG2 (GeneID 284611) | no change | no change | 1.48 | -0.05 |
| KIAA1191 (GeneID 57179) | RV2 (reduced viability) (active) | no change | -2.93 | -0.42 |
| F5 (GeneID 2153) | no change | no change | 1.16 | -0.44 |
| TADA2A (GeneID 6871) | no change | no change | -0.07 | 0.9 |
| NUDT12 (GeneID 83594) | no change | no change | -0.05 | 0.54 |
| ZNF609 (GeneID 23060) | no change | no change | 0 | 1.96 |
| ADRA2A (GeneID 150) | no change | no change | 0 | 0.32 |
| OR6C65 (GeneID 403282) | no change | no change | -0.94 | 1.57 |
| GSS (GeneID 2937) | no change | no change | -0.78 | 1.51 |
